These are yes or no findings as the source states them, for the method shown. In cells and extracts the contact can be indirect. Some binding calls cover weakened binding; strength is not graded here. Where a sequence is shown, tags or fusion partners need not be part of it. One block for each binder: values may come before it.
Columns and labels:
GST::14-3-3f (rice) = target: T1, GST::14-3-3f (rice) (UniProt Q06967); test: pull-down; GST::14-3-3f bound to glutathione sepharose incubated with the His fusion protein at low temperature, rinsed with 1 x PBS, eluted with glutathione in Tris-HCl pH 8.0, Western blot with His and GST antibodies
T1 sequence: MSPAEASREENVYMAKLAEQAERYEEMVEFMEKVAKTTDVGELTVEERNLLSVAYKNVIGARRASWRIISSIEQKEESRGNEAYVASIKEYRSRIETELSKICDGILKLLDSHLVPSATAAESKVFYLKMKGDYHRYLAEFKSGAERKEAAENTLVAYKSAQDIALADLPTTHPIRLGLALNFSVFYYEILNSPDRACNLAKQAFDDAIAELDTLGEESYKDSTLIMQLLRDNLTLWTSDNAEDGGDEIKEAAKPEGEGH

[1] = target: T2, Lsi1-YFP-N (rice (Dular cDNA)) (UniProt Q6Z2T3); test: split reporter; BiFC with eYFP halves (p2300-2YN, p2300-2YC) in Agrobacterium-infiltrated tobacco leaves, confocal microscopy after 48 h
T2 sequence: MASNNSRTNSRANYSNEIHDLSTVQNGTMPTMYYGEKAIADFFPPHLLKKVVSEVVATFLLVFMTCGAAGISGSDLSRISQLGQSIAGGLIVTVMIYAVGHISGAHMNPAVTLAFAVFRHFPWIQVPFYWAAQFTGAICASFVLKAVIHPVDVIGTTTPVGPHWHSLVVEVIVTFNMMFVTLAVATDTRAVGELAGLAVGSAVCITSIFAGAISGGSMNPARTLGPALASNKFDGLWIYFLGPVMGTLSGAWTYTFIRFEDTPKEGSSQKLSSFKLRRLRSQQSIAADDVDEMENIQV

binding (GST::14-3-3f (rice)): binds
B1: His::Lsi1 (protein, UniProt Q6Z2T3 1-298)
chain: T2 sequence

binding [1]: binds
B2: 14-3-3f-YFP-C (protein, UniProt Q06967 1-260)
chain: T1 sequence
